The other results are listed elsewhere or left out. Single values are uncertain, as repeats are few or missing.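 Cells were imaged in 1,536-well plates, and nuclei stained with an antibody against cleaved PARP were counted against all DNA-stained nuclei to give the apoptosis fraction. Screening doses were chosen to leave most cells alive, and resting and induced cleaved-PARP levels differ strongly between cell lines.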
Tests used:
Test in all cases: cleaved PARP positive nuclei fraction relative to DMSO control; melanoma cells; higher = more apoptosis
Settings in all cases: library dose: low library concentration; 72 h
COLO792 = system: COLO792
COLO800 = system: COLO800
COLO829 = system: COLO829
G361 = system: G361
IPC-298 = system: IPC-298
IST-MEL1 = system: IST-MEL1
LB2518-MEL = system: LB2518-MEL
LOXIMVI = system: LOXIMVI
MEL-HO = system: MEL-HO

Compound	cleaved PARP positive nuclei fraction (COLO792) [%]	cleaved PARP positive nuclei fraction (COLO800) [%]	cleaved PARP positive nuclei fraction (COLO829) [%]	cleaved PARP positive nuclei fraction (G361) [%]	cleaved PARP positive nuclei fraction (IPC-298) [%]	cleaved PARP positive nuclei fraction (IST-MEL1) [%]	cleaved PARP positive nuclei fraction (LB2518-MEL) [%]	cleaved PARP positive nuclei fraction (LOXIMVI) [%]	cleaved PARP positive nuclei fraction (MEL-HO) [%]
N.N.[Cl][Pt][Cl] [cisplatin] + CCc1ccc(CCOc2ccc(CC3SC(=O)NC3=O)cc2)nc1 [pioglitazone] (first compound 1.6 µM, partner dose 2 µM)	79.8	109	52.8	143	135	127	97.9	122	
Cn1c(=O)n(-c2ccc(C(C)(C)C#N)cc2)c2c3cc(-c4cnc5ccccc5c4)ccc3ncc21 + Cc1cc(SCc2sc(-c3ccc(C(F)(F)F)c(F)c3)nc2C)ccc1OCC(=O)O [GW0742] (first compound 0.004 µM, partner dose 2 µM)	123	65.4	103	73.2	147	67.9	67.3	141	
Nc1nc(F)nc2c1ncn2[C@@H]1O[C@H](CO)[C@@H](O)[C@@H]1O [fludarabine] + O=C(Oc1ccc([N+](=O)[O-])cc1)N1CCC(C(O)(c2ccc3c(c2)OCO3)c2ccc3c(c2)OCO3)CC1 [JZL184] (first compound 0.2 µM, partner dose 1 µM)	128	86.3	140	109	218	100	62.5	105	
N.N.[Cl][Pt][Cl] [cisplatin] + O=C(Nc1cccc(Cl)c1)Nc1ncc(CCNc2ncnc3ccsc23)s1 [SNS314] (first compound 1.6 µM, partner dose 0.0008 µM)	221	123	17.9	98.5	46.4	68.9	91.4	56.5	62.1
N.N.[Cl][Pt][Cl] [cisplatin] + CC1(C)NC(=O)N(c2ccc([N+](=O)[O-])c(C(F)(F)F)c2)C1=O [nilutamide] (first compound 1.6 µM, partner dose 1 µM)	234	89.9	127	66.5	82.8	122	98.8	28.9	50.6
C[C@]12O[C@H](C[C@]1(O)CO)n1c3ccccc3c3c4c(c5c6ccccc6n2c5c31)CNC4=O [Lestaurtinib] + Cc1cc(N2CCOCC2)cc2[nH]c(-c3c(NC[C@@H](O)c4cccc(Cl)c4)cc[nH]c3=O)nc12 [BMS536924] (first compound 0.004 µM, partner dose 0.2 µM)	105	53.6	133	134	44.6	115	54.7	26.1	45.1
C[C@]12O[C@H](C[C@]1(O)CO)n1c3ccccc3c3c4c(c5c6ccccc6n2c5c31)CNC4=O [Lestaurtinib] + NC(=O)Nc1cc(-c2cccc(F)c2)sc1C(=O)N[C@H]1CCCNC1 [AZD7762] (first compound 0.004 µM, partner dose 0.02 µM)	176	71.6	73.7	49	86	93.4	91.8	21.7	52.5
C[C@]12O[C@H](C[C@]1(O)CO)n1c3ccccc3c3c4c(c5c6ccccc6n2c5c31)CNC4=O [Lestaurtinib] + O=C(Nc1cccc(Cl)c1)Nc1ncc(CCNc2ncnc3ccsc23)s1 [SNS314] (first compound 0.004 µM, partner dose 0.0008 µM)	99.9	55.3	66.9	36.5	42.3	150	181	124	133
N.N.[Cl][Pt][Cl] [cisplatin] + CN(C)S(=O)(=O)c1ccc2c(c1)/C(=C/c1cc3c([nH]1)CCCC3)C(=O)N2 [SU6656] (first compound 1.6 µM, partner dose 0.4 µM)	144	23.6	74.2	65.1	43.7	107	54.5	26.9	98.7
Cn1cc(C2=C(c3cn(C4CCN(Cc5ccccn5)CC4)c4ccccc34)C(=O)NC2=O)c2ccccc21 [Enzastaurin] + CO[C@@H]1[C@H](N(C)C(=O)c2ccccc2)C[C@H]2O[C@]1(C)n1c3ccccc3c3c4c(c5c6ccccc6n2c5c31)C(=O)NC4 [Midostaurin] (first compound 0.8 µM, partner dose 0.08 µM)	58	146	157	36.2	98.4	37.6	138	845	70.8
N.N.[Cl][Pt][Cl] [cisplatin] + Cn1cncc1[C@@](N)(c1ccc(Cl)cc1)c1ccc2c(c1)c(-c1cccc(Cl)c1)cc(=O)n2C [tipifarnib] (first compound 1.6 µM, partner dose 0.01 µM)	93.9	73.2	169	107	90.6	51.9	322	75.6	65.8

Reference: the supplement of paper PMC4604168 (melanoma cell lines)
